No constants are given. Whether binding was seen depends on the method and setting. Binding seen in cells or lysates may run through a third protein. Some results given as binding are weak or reduced against the parent protein; the word gives no strength.
B1: Nuclear factor E2-related factor 2 (NRF2) (protein, UniProt A0A0A7MB97 1-616)
chain: MDLIDILWRQDIDLGVSREVFDFSQRQKEHELEKQKKLEKERQEQLQKEQEKAFFAQLQLDEETGEFLPIQPAQHTPSEASGSANYETGEFLPIQPAQHTASEASGSANYSQAAHIPKADDLYFDDCMQLLAETFLFVDDNEVSSATFQSPVPDIRSHIESPVFNAPSQAQSPETLFVQVATADLDDMQEDIEQVWEELLSIPELQCLNIQNDKLAETSTVPSPETKLTEIDSYNFYSSMPSLDKEVGNCSPHFLNAFEDSFNSILSTEDSSRLTVNSLNSTATVNTDFGDEFYSAFIAEPSTSNSMPSSATLSQSLSELLNGPIDLSDLSLCKAFNQNHPESTTAEFNDSDSGISLNTTSPSMASPDHSVESSVYGDTLLGFSDSEMEEIDSAPGNVKQKGPKTQSVWPSGDPVQPLSSSQGNSTAACDSQCENAPKKEVPVSPGHRKTPFTKDKHSSRLEAHLTRDELRAKALHIPFPVEKIINLPVEDFNEMMSKEQFNEAQLALIRDIRRRGKNKVAAQNCRKRKLENIVELEQDLDHLKDEKEKLLKERGENDKSLHLLKKQLSTLYLEVFSMLRDEDGKPYSPSEYSLQQTGDGNIFLVPKSKRPDIKKN

Protein sequences, listed by entry. Tags and fused reporters are not part of them.
UniProt A0A452E2Q3: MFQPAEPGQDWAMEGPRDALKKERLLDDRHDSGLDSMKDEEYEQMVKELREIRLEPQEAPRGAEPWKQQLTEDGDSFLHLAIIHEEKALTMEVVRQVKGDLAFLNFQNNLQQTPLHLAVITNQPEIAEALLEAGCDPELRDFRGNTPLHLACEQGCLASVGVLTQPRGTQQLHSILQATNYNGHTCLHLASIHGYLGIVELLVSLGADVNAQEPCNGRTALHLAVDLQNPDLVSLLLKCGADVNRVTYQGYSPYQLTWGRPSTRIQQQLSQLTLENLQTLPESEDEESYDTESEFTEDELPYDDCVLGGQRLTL
UniProt A0A452EP88: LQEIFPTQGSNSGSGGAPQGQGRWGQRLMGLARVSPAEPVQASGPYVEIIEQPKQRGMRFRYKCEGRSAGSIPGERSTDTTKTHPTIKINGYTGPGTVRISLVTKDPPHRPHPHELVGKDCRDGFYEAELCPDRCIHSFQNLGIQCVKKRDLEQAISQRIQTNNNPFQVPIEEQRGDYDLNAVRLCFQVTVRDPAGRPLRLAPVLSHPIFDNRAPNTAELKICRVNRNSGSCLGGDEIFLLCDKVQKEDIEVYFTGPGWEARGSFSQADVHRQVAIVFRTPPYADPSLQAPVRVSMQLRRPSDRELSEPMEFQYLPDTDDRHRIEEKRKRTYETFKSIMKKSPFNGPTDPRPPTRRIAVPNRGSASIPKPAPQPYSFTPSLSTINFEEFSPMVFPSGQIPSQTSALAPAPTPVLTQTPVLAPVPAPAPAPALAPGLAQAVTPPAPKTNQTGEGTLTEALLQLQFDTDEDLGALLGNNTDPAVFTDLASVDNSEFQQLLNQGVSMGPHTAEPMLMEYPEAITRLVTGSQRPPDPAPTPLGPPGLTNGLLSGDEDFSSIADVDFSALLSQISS

What was measured:
[1] = molecular target: T1, Nuclear factor E2-related factor 2 (NRF2) (goat (endogenous in gEECs)); assay: co-IP; NRF2 (D1Z9C) antibody added to 200 μg protein of gEEC lysate (8 μg/mL LPS for 12 hours) for 12 hours at 4°C, protein A/G beads; rabbit IgG as negative control; immunoblotting with NRF2, TLR4, IκBα and p65 antibodies
T1 sequence: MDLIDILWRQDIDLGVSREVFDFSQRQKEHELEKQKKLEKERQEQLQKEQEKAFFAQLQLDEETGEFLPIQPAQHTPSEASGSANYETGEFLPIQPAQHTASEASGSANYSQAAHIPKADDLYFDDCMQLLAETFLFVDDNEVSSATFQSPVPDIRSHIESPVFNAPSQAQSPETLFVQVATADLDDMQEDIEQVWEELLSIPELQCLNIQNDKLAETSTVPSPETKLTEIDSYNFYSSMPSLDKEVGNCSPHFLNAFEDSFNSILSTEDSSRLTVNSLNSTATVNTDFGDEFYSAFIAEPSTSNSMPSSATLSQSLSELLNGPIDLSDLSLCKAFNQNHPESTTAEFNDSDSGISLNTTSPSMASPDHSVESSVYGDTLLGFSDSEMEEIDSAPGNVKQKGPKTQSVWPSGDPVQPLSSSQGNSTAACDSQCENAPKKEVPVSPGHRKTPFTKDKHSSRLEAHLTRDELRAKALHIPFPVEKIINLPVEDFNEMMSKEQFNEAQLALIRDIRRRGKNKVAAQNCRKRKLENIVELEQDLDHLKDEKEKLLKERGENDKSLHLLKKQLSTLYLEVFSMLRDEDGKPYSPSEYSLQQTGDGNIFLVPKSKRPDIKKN

[2] = molecular target: NF-κB p65 (goat (endogenous in gEECs)); assay: co-IP; p65 antibody on isolated nuclear and cytoplasmic proteins of gEECs (8 μg/mL LPS for 12 hours); result told for the nuclear fraction; immunoblotting with NRF2 antibody

Molecule | binding [1] | binding [2]
IκBα (from UniProt A0A452E2Q3 1-314) | no binding | –
NF-κB p65 (from UniProt A0A452EP88 1-571) | binds | –
B1 | – | binds

Source: publication PMC8577927
